Measurements published in US20060257938A1, “Method of screening for drugs that block ligand binding to a lipid binding protein” (priority 2005, published 2006).

B1: 49P1, 72A (protein, listed as Rattus norvegicus)
chain: AFDGTWKVDRNENYEKFMEKMGINVVKRKLGAHDNLKLTITQEGNKFTPKESSNFRNIDVVFELGVDFAYSAADGTELTGTWTMEGNKLVGKFKRVDNGKELIAVREISGNELIQTYTYEGVEAKRIFKKE
modifications: PEPTIDE (1)...(131) wild-type rat intestinal fatty acid binding protein
B2: 49Y1, 72A (protein, listed as Rattus norvegicus)
chain: AFDGTWKVDRNENYEKFMEKMGINVVKRKLGAHDNLKLTITQEGNKFTYKESSNFRNIDVVFELGVDFAYSAADGTELTGTWTMEGNKLVGKFKRVDNGKELIAVREISGNELIQTYTYEGVEAKRIFKKE
modifications: PEPTIDE (1)...(131) wild-type rat intestinal fatty acid binding protein
B3: 49S1, 72A (protein, listed as Rattus norvegicus)
chain: AFDGTWKVDRNENYEKFMEKMGINVVKRKLGAHDNLKLTITQEGNKFTSKESSNFRNIDVVFELGVDFAYSAADGTELTGTWTMEGNKLVGKFKRVDNGKELIAVREISGNELIQTYTYEGVEAKRIFKKE
modifications: PEPTIDE (1)...(131) wild-type rat intestinal fatty acid binding protein
B4: 49W1, 72A (protein, listed as Rattus norvegicus)
chain: AFDGTWKVDRNENYEKFMEKMGINVVKRKLGAHDNLKLTITQEGNKFTWKESSNFRNIDVVFELGVDFAYSAADGTELTGTWTMEGNKLVGKFKRVDNGKELIAVREISGNELIQTYTYEGVEAKRIFKKE
modifications: PEPTIDE (1)...(131) wild-type rat intestinal fatty acid binding protein
B5: 49T1, 72A (protein, listed as Rattus norvegicus)
chain: AFDGTWKVDRNENYEKFMEKMGINVVKRKLGAHDNLKLTITQEGNKFTTKESSNFRNIDVVFELGVDFAYSAADGTELTGTWTMEGNKLVGKFKRVDNGKELIAVREISGNELIQTYTYEGVEAKRIFKKE
modifications: PEPTIDE (1)...(131) wild-type rat intestinal fatty acid binding protein
B6: 49Q1, 72A (protein, listed as Rattus norvegicus)
chain: AFDGTWKVDRNENYEKFMEKMGINVVKRKLGAHDNLKLTITQEGNKFTQKESSNFRNIDVVFELGVDFAYSAADGTELTGTWTMEGNKLVGKFKRVDNGKELIAVREISGNELIQTYTYEGVEAKRIFKKE
modifications: PEPTIDE (1)...(131) wild-type rat intestinal fatty acid binding protein
B7: 49R1, 72A (protein, listed as Rattus norvegicus)
chain: AFDGTWKVDRNENYEKFMEKMGINVVKRKLGAHDNLKLTITQEGNKFTRKESSNFRNIDVVFELGVDFAYSAADGTELTGTWTMEGNKLVGKFKRVDNGKELIAVREISGNELIQTYTYEGVEAKRIFKKE
modifications: PEPTIDE (1)...(131) wild-type rat intestinal fatty acid binding protein
B8: 49Q, 72A (protein, listed as Rattus norvegicus)
chain: AFDGTWKVDRNENYEKFMEKMGINVVKRKLGAHDNLKLTITQEGNKFTQKESSNFRNIDVVFELGVDFAYSAADGTELTGTWTMEGNKLVGKFKRVDNGKELIAVREISGNELIQTYTYEGVEAKRIFKKE
modifications: PEPTIDE (1)...(131) wild-type rat intestinal fatty acid binding protein
B9: 102V, 72A (protein, listed as Rattus norvegicus)
chain: AFDGTWKVDRNENYEKFMEKMGINVVKRKLGAHDNLKLTITQEGNKFTVKESSNFRNIDVVFELGVDFAYSAADGTELTGTWTMEGNKLVGKFKRVDNGKEVIAVREISGNELIQTYTYEGVEAKRIFKKE
modifications: PEPTIDE (1)...(131) wild-type rat intestinal fatty acid binding protein

assay: Baseline fluorescence ratio Ro of probe in absence of analyte; conditions: average baseline fluorescence ratio Ro of the clone probe; substitutions with respect to SEQ ID NO: 2

First: B1
Second: B2
The AvgOfRo of the first is lower: 0.40 for the first, 0.43 for the second.

Compared with B3, B4 is lower in AvgOfRo: 0.40 for the first, 0.31 for the second.

Compared with B5, B6 is higher in AvgOfRo: 0.28 for the first, 0.39 for the second.

Compared with B7, B8 is lower in AvgOfRo: 0.42 for the first, 0.23 for the second.

same assay, conditions: baseline fluorescence ratio of probe, no fatty acid

B9 showed an AvgOfRo of 0.18.
